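Vaccinia-infected cells with a two-color viral stage reporter; Venus fluorescence read on a plate reader; the cell line is not named here; timing not stated here.
The test concentration is not given here.
Percent change in Venus reporter signal; lower (more negative) values mean stronger inhibition of that viral stage.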

Values are in %.
How 0% and 100% were set is not given here.
Common to all entries: measured here: Venus reporter, other viral stage.
This is a side read-out of the assay, for part of the compounds, not drawn at random.

{"smiles": "C[C@H](CO)N1C[C@H](C)[C@@H](CN(C)C(=O)NC2CCCCC2)Oc2c(NC(=O)Nc3ccc(C(F)(F)F)cc3)cccc2C1=O", "activity change (Venus) (%)": "-33.06"}
{"smiles": "C[C@H]1CN([C@@H](C)CO)C(=O)c2cc(C#CCC3CCCC3)cnc2O[C@@H]1CN(C)S(=O)(=O)c1cccs1", "activity change (Venus) (%)": "-46.28"}
{"smiles": "CCCNC(=O)N(C)C[C@H]1Oc2cc(C#Cc3cccc(F)c3)ccc2S(=O)(=O)N([C@H](C)CO)C[C@H]1C", "activity change (Venus) (%)": "-56.73"}
{"smiles": "Cc1ccc(S(=O)(=O)N2C[C@@H](O)COC[C@@H]3O[C@@H](CC(=O)N[C@@H]4CCN(Cc5ccccc5)C4)CC[C@H]32)cc1", "activity change (Venus) (%)": "-25.3"}
{"smiles": "CCCC#Cc1ccc2c(c1)O[C@H](CN(C)C(=O)Nc1ccccc1F)[C@H](C)CN([C@@H](C)CO)S2(=O)=O", "activity change (Venus) (%)": "-47.5"}
{"smiles": "O=S(=O)(c1ccc(F)cc1)N1CCCCN2[C@H](CO)[C@H](c3ccc(-c4ccccc4)cc3)[C@@H]2C1", "activity change (Venus) (%)": "-42.54"}
{"smiles": "CCCC#Cc1ccc([C@@H]2[C@H]3CN(S(=O)(=O)Cc4ccccc4)CCCCN3[C@H]2CO)cc1", "activity change (Venus) (%)": "-47.77"}
{"smiles": "C[C@H](CO)N1C[C@H](C)[C@@H](CN(C)Cc2ccc(-c3ccccc3)cc2)Oc2ncc(C#C[C@@H](C)O)cc2C1=O", "activity change (Venus) (%)": "-36.32"}
{"smiles": "COc1ccc(C#Cc2ccc([C@H]3[C@H]4CN(C(=O)c5ccncc5)CC(=O)N4[C@H]3CO)cc2)cc1", "activity change (Venus) (%)": "-49.97"}
{"smiles": "COc1ccc(NC(=O)Nc2ccc3c(c2)C(=O)N([C@@H](C)CO)C[C@@H](C)[C@@H](CN(C)CC2CCCCC2)OCCCC[C@@H](C)O3)cc1", "activity change (Venus) (%)": "-54.94"}
{"smiles": "O=C1N(CCS(=O)(=O)c2ccccc2)Cc2ccccc2C[C@@]12N=C(c1ccc(OCCCO)cc1)O[C@H]2c1ccccc1", "activity change (Venus) (%)": "-41.48"}
{"smiles": "C[C@@H]1CCCCO[C@H](CN(C)C)[C@H](C)CN([C@H](C)CO)C(=O)c2cc(NC(=O)Nc3cccc4ccccc34)ccc2O1", "activity change (Venus) (%)": "-20.26"}
{"smiles": "C[C@H]1CN([C@@H](C)CO)S(=O)(=O)c2ccc(-c3cccc(F)c3)cc2O[C@@H]1CN(C)S(=O)(=O)c1ccc(F)cc1", "activity change (Venus) (%)": "-26.9"}
{"smiles": "Cc1ccc(S(=O)(=O)Nc2ccc3c(c2)C(=O)N([C@H](C)CO)C[C@@H](C)[C@H](CN(C)C(=O)NC2CCCCC2)OCCCC[C@@H](C)O3)cc1", "activity change (Venus) (%)": "-48.46"}
{"smiles": "C[C@@H]1CCCCO[C@H](CN(C)Cc2ccc3c(c2)OCO3)[C@H](C)CN([C@@H](C)CO)C(=O)c2cc(NC(=O)C3CCCCC3)ccc2O1", "activity change (Venus) (%)": "-37.07"}
{"smiles": "C[C@H](CO)N1C[C@H](C)[C@@H](CN(C)CC2CCCCC2)Oc2ccc(NC(=O)Nc3ccc4c(c3)OCO4)cc2CC1=O", "activity change (Venus) (%)": "-45.44"}
{"smiles": "COc1ccc2c3c(n(C)c2c1)[C@@H](CO)NCC31CCN(Cc2cc(F)ccc2F)CC1", "activity change (Venus) (%)": "-46.13"}
{"smiles": "Cc1ccccc1-c1ccc2c(c1)O[C@@H](CN(C)Cc1ccncc1)[C@H](C)CN([C@H](C)CO)S2(=O)=O", "activity change (Venus) (%)": "-60.47"}
{"smiles": "CC(C)CC#Cc1cnc2c(c1)C(=O)N([C@@H](C)CO)C[C@@H](C)[C@@H](CN(C)Cc1ccc(F)cc1)O2", "activity change (Venus) (%)": "-24.33"}

For reference, 2 entries once more:

- Cc1ccc(S(=O)(=O)N2C[C@@H](O)COC[C@@H]3O[C@@H](CC(=O)N[C@@H]4CCN(Cc5ccccc5)C4)CC[C@H]32)cc1 | activity change (Venus) -25.3%
- COc1ccc(NC(=O)Nc2ccc3c(c2)C(=O)N([C@@H](C)CO)C[C@@H](C)[C@@H](CN(C)CC2CCCCC2)OCCCC[C@@H](C)O3)cc1 | activity change (Venus) -54.94%

Source: PubChem BioAssay AID1053133 (Broad Institute, 2014).